Positions count from the first letter of the chain named. Results are given in words; binding and its absence hold for the method and conditions named. Binding seen in cells or lysates may run through a third protein. Some results given as binding are weak or reduced against the parent protein; the word gives no strength. Sequences can lack the tags named with a protein.
Assays:
Assay in all cases: pull-down; GST fusion proteins or GST immobilized on glutathione-sepharose beads, incubated with total lysates of HEK293 cells expressing dynamin 2-GFP or GFP-Triad3A 1 h at 4°C; washes with lysis buffer with 1% Triton X-100; immunoblot with anti-GFP; only the target purified
[1] = biological target: T1, GST-Arc(195-199A) (mouse) (UniProt Q9WV31)
T1 sequence: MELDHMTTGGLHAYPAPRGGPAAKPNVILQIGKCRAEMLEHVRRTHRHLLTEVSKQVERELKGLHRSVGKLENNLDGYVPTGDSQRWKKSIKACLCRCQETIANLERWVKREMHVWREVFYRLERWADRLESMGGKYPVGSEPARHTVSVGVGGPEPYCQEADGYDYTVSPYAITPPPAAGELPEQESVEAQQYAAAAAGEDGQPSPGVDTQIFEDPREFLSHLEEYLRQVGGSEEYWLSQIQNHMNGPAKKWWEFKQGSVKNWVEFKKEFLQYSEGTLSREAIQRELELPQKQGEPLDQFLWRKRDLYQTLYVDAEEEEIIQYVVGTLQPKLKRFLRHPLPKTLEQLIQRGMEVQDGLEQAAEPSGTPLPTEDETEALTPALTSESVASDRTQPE

GST-Arc(W197A) (mouse) = biological target: T2, GST-Arc(W197A) (mouse) (UniProt Q9WV31)
T2 sequence: T1 sequence with A195Q, A196S, A198G, A199P

GST-Arc(WT) (mouse) = biological target: T3, GST-Arc(WT) (mouse) (UniProt Q9WV31)
T3 sequence: T1 sequence with A195Q, A196S, A197W, A198G, A199P

Measured: binding

GFP-Triad3A (from UniProt Q9NWF9-2 1-866)
binds: all assays above

Reference: PMC4877669
